For 14 targets, NP40-soluble protein abundance results are on record in the supplement of paper PMC6411743.

Sequences of proteins named here, by UniProt entry; tags and fusion partners are left off. A change or cut given only in a name is not applied to a line headed by its entry.
UniProt Q8TDR2: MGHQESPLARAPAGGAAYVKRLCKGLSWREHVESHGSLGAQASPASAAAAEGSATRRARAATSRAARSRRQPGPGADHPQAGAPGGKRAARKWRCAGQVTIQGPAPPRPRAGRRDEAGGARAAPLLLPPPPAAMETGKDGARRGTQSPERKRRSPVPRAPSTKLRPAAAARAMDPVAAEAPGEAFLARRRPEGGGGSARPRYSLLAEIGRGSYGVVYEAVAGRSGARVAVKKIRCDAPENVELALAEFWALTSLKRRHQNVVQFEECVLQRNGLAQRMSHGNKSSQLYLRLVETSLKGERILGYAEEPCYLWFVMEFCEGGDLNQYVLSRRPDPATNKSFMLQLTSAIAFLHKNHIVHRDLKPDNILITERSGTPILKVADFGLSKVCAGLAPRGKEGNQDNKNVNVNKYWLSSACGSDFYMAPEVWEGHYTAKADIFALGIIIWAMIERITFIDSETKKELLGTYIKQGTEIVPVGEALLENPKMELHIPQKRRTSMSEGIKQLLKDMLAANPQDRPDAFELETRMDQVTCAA
UniProt Q9UL46, whole entry: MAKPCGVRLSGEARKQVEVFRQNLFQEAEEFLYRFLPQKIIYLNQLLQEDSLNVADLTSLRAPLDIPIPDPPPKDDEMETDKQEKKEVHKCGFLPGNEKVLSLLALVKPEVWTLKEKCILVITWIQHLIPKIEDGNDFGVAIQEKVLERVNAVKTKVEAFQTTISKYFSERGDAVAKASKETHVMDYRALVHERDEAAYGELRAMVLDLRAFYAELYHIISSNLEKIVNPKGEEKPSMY
UniProt P46013: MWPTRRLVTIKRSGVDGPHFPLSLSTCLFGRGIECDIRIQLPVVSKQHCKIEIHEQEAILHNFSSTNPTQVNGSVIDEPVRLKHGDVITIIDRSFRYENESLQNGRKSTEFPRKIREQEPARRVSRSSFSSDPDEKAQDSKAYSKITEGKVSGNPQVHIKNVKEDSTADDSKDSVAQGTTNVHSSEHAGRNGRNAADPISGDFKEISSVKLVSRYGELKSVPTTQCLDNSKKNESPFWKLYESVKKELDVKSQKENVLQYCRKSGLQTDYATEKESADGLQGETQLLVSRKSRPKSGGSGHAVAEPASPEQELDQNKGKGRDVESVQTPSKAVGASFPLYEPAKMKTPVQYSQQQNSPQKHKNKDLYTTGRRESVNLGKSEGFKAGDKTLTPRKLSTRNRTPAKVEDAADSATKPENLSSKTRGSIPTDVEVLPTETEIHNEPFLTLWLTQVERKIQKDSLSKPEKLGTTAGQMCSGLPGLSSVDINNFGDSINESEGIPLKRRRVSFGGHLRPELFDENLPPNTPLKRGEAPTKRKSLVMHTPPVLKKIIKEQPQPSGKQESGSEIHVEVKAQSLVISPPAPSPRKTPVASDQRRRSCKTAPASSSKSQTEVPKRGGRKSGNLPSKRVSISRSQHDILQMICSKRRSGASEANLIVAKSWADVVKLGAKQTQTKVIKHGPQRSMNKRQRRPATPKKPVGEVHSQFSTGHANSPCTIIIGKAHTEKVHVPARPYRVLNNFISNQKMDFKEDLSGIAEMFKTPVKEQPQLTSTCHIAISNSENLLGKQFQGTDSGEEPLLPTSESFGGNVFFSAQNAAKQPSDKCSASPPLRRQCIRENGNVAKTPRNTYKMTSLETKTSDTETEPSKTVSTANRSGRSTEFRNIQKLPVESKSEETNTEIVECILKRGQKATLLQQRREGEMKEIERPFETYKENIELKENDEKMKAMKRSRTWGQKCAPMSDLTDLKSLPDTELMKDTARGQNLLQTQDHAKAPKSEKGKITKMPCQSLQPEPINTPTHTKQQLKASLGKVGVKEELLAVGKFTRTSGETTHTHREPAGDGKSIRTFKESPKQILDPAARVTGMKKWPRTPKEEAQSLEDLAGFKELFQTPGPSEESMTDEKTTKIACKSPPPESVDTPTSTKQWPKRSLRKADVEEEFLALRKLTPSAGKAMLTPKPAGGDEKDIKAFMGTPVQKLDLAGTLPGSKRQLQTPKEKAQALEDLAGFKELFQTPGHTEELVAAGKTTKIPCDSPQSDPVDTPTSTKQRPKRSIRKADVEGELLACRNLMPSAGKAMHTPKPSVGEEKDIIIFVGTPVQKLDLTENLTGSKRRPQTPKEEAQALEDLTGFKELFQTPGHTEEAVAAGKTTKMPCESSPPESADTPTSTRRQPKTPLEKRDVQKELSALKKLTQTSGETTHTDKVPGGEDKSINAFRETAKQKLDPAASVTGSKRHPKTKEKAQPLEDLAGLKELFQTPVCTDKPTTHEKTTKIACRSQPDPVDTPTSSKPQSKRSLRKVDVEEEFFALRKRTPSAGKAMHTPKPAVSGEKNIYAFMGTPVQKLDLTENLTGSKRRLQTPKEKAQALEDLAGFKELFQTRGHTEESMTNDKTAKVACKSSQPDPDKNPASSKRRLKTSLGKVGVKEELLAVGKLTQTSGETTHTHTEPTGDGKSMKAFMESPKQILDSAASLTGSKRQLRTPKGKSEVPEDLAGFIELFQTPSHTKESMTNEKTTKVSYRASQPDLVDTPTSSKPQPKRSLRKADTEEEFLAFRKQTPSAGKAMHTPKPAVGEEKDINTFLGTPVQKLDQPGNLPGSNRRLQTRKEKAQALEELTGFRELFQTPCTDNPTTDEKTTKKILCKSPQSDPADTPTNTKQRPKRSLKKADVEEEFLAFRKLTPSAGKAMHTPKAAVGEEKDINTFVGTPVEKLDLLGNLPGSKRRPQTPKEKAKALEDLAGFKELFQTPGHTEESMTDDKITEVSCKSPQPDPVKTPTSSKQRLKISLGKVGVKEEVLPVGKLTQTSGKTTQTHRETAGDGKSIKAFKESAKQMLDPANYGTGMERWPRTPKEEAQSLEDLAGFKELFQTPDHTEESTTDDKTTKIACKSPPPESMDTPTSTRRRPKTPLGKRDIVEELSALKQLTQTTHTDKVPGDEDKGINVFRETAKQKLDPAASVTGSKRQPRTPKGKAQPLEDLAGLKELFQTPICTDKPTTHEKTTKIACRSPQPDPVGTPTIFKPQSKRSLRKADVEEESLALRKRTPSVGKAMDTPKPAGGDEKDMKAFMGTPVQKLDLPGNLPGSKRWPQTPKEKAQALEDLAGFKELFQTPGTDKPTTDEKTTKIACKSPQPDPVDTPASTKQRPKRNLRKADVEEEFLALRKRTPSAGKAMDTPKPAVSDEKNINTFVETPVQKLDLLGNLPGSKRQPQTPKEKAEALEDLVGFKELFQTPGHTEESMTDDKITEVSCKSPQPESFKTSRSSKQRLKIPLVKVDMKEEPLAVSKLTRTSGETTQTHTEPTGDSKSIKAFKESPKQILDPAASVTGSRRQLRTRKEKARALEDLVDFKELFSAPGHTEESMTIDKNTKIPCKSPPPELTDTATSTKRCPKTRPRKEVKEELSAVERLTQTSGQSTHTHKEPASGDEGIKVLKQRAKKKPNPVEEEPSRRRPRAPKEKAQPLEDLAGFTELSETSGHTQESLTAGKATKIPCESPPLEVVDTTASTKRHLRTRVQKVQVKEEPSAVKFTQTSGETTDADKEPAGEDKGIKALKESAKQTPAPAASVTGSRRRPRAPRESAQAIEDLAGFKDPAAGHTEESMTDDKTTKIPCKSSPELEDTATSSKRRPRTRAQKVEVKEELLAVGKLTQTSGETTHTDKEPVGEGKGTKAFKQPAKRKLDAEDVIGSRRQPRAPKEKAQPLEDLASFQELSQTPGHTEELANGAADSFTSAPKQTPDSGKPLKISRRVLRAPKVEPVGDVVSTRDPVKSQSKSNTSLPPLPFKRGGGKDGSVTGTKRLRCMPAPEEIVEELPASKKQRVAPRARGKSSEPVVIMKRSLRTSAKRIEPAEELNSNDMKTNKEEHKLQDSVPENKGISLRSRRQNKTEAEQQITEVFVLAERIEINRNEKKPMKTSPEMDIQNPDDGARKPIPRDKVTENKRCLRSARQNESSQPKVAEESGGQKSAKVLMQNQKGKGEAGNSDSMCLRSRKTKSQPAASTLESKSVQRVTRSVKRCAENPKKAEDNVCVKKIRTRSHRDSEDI
UniProt Q8N6M0: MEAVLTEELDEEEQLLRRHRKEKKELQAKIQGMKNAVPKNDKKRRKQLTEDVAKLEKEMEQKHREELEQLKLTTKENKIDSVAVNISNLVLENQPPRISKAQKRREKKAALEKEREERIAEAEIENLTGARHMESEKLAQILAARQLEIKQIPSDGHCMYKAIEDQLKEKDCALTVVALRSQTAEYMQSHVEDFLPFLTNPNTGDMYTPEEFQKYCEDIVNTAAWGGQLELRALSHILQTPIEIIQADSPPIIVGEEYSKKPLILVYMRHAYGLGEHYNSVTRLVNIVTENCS
UniProt Q96MY1: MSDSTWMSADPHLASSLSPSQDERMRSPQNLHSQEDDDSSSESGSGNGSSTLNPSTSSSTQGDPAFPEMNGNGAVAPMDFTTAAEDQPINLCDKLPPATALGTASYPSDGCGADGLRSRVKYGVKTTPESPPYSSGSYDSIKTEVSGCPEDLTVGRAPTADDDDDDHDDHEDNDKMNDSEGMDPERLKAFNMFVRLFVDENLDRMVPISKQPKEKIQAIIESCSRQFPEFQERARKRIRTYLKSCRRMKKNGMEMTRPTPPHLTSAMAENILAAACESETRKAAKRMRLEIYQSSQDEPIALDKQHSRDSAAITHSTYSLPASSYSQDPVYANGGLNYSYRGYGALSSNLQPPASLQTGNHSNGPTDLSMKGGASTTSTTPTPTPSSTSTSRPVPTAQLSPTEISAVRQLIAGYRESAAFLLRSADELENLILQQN
UniProt Q14114: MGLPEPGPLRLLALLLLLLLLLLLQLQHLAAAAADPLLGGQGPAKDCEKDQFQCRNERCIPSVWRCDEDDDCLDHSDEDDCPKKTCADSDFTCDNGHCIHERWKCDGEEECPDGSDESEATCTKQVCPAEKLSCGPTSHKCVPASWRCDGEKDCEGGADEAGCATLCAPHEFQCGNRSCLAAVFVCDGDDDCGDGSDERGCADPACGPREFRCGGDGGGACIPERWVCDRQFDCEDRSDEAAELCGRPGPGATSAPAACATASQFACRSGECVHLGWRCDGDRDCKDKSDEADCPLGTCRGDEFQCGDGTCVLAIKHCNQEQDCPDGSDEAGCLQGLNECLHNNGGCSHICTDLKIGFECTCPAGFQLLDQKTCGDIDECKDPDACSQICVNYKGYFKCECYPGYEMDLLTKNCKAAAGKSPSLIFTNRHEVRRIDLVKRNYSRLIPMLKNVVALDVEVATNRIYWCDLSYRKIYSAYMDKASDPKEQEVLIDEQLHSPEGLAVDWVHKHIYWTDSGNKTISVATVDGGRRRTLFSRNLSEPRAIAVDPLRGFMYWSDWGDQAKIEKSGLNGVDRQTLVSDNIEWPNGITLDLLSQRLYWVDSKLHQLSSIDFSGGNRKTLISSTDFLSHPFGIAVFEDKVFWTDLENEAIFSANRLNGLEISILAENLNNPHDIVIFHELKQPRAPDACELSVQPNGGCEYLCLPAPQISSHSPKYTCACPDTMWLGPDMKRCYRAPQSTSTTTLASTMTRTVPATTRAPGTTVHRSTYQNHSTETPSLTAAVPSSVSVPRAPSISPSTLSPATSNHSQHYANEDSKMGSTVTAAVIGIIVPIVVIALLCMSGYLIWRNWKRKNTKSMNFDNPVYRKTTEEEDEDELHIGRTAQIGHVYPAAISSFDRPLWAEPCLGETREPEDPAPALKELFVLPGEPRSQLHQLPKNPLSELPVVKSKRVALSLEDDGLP
UniProt Q70IA6: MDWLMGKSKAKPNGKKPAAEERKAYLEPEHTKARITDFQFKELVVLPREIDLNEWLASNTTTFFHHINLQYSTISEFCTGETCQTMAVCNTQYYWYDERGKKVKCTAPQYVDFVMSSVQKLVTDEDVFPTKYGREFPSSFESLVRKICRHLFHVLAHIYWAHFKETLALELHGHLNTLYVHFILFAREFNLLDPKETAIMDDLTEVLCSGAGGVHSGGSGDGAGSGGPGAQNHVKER
UniProt P59780: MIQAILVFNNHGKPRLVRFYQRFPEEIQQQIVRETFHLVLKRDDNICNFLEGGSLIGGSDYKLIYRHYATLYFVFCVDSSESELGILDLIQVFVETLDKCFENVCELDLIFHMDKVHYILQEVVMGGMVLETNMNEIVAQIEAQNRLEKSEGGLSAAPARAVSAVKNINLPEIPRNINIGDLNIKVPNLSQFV
UniProt P61077: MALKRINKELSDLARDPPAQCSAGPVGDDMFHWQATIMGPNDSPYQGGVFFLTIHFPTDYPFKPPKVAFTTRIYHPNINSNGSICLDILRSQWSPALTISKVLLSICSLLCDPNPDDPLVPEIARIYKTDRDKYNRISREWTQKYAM
UniProt P62070: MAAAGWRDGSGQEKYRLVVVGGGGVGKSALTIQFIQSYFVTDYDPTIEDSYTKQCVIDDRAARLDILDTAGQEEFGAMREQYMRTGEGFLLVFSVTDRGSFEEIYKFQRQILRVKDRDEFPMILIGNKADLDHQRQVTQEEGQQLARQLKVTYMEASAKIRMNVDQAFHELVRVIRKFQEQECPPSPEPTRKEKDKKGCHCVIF

± gives the standard deviation of the averaged measurements. The list shows a part of the results, in another mix than the full data.

Compound in the assay: Nc1ncnc2c1ncn2[C@@H]1O[C@H](COP(=O)(O)OP(=O)(O)OP(=O)(O)O)[C@@H](O)[C@H]1O [adenosine triphosphate]
As to the kind of experiment: NP40-soluble protein abundance relative to vehicle (solubility fold change) (ratio); higher = more soluble protein in presence of ATP. The method in brief: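 Each value is a fold change relative to the detergent-processed vehicle, calculated per replicate from vsn-normalised intensities. Jurkat crude lysate received eight concentrations (0.1 to 10 mM) for 10 min at room temperature and 3 min at 37 °C, then was solubilised in 0.8% NP40 with benzonase (60 min, 4 °C). The ultracentrifuged supernatant was TMT-labelled and run by LC-MS/MS in three independent experiments.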

As to A0A0C4DGC9|Q8TDR2 (UniProt Q8TDR2), the NP40-soluble protein abundance is, setting by setting: (concentration: 1mM) 1.07 ± 0.089; (concentration: 2mM) 1.14 ± 0.028; (concentration: 4mM) 1.11 ± 0.057; (concentration: 6mM) 1.09 ± 0.058; (concentration: 8mM) 1.07 ± 0.05; (concentration: 10mM) 1.08 ± 0.073.
As to A0A087X1Z3|Q9UL46 (UniProt Q9UL46), the NP40-soluble protein abundance was 0.932 ± 0.096 (concentration: 1mM); 0.896 ± 0.011 (concentration: 2mM); 0.934 ± 0.012 (concentration: 4mM); 0.9 ± 0.099 (concentration: 6mM); 0.953 ± 0.01 (concentration: 8mM); 0.82 ± 0.096 (concentration: 10mM).
As for “A0A087WV66|P46013 and related entries (UniProt P46013)”, the NP40-soluble protein abundance was 0.999 ± 0.04 (concentration: 1mM); 0.9935 ± 0.0056 (concentration: 2mM); 0.986 ± 0.012 (concentration: 4mM); 1.04 ± 0.021 (concentration: 6mM); 0.97 ± 0.011 (concentration: 8mM); 0.989 ± 0.018 (concentration: 10mM).
As for A0A087X0W9|Q8N6M0 (UniProt Q8N6M0), the NP40-soluble protein abundance is, setting by setting: (concentration: 1mM) 0.933 ± 0.064; (concentration: 2mM) 0.927 ± 0.051; (concentration: 4mM) 0.92 ± 0.036; (concentration: 6mM) 0.97 ± 0.018; (concentration: 8mM) 0.908 ± 0.052; (concentration: 10mM) 0.902 ± 0.044.
Regarding “A0A0C4DFT8|G3XAA4 and related entries (UniProt Q9NQC1)”, the NP40-soluble protein abundance (concentration: 1mM) came out at 1.221 ± 0.012; the NP40-soluble protein abundance (concentration: 2mM) was 1.35 ± 0.053; the NP40-soluble protein abundance (concentration: 4mM) was found to be 1.25 ± 0.15; the NP40-soluble protein abundance (concentration: 6mM) came to 1.43 ± 0.12; the NP40-soluble protein abundance (concentration: 8mM) turned out to be 1.276 ± 0.011; the NP40-soluble protein abundance (concentration: 10mM) turned out to be 1.38 ± 0.015.
On to A0A087X0N3 (UniProt Q96MY1), for which the NP40-soluble protein abundance was found to be 0.93 ± 0.019 (concentration: 1mM); 0.967 ± 0.02 (concentration: 2mM); 0.96 ± 0.032 (concentration: 4mM); 0.965 ± 0.016 (concentration: 6mM); 0.924 ± 0.085 (concentration: 8mM); 0.896 ± 0.053 (concentration: 10mM).
“A0A087WW84|Q14114-2|Q14114 and related entries (UniProt Q14114)”: the NP40-soluble protein abundance by setting is: (concentration: 1mM) 1.02 ± 0.039; (concentration: 2mM) 0.99188 ± 0.00099; (concentration: 4mM) 1.02 ± 0.066; (concentration: 6mM) 1.01 ± 0.075; (concentration: 8mM) 0.972 ± 0.082; (concentration: 10mM) 0.994 ± 0.063.
Regarding “A0A087WVS8|Q70IA6 and related entries (UniProt Q70IA6)”, the NP40-soluble protein abundance is 0.987 ± 0.019 (concentration: 1mM); 0.948 ± 0.04 (concentration: 2mM); 0.986 ± 0.03 (concentration: 4mM); 0.972 ± 0.068 (concentration: 6mM); 0.949 ± 0.028 (concentration: 8mM); 0.965 ± 0.063 (concentration: 10mM).
In the case of “A0A087X188|F5H0W4 and related entries (UniProt Q9UBW5)”, the NP40-soluble protein abundance (concentration: 1mM) came to 0.979 ± 0.011; the NP40-soluble protein abundance (concentration: 2mM) was 0.973 ± 0.018; the NP40-soluble protein abundance (concentration: 4mM) was 0.946 ± 0.021; the NP40-soluble protein abundance (concentration: 6mM) is 0.954 ± 0.012; the NP40-soluble protein abundance (concentration: 8mM) was 0.955 ± 0.051; the NP40-soluble protein abundance (concentration: 10mM) was found to be 0.939 ± 0.021.
Regarding “A0A075B716|H0YN88 and related entries (UniProt P08708)”, the NP40-soluble protein abundance (concentration: 1mM) was 0.881 ± 0.056; the NP40-soluble protein abundance (concentration: 2mM) amounted to 0.853 ± 0.083; the NP40-soluble protein abundance (concentration: 4mM) worked out at 0.811 ± 0.089; the NP40-soluble protein abundance (concentration: 6mM) is 0.782 ± 0.11; the NP40-soluble protein abundance (concentration: 8mM) was 0.743 ± 0.1; the NP40-soluble protein abundance (concentration: 10mM) amounted to 0.78 ± 0.061.
“A0A0A6YYH1|H0YLI7 and related entries (UniProt Q7Z6K5+P59780+H0YLI7)”: the NP40-soluble protein abundance (concentration: 1mM) worked out at 0.898 ± 0.17; the NP40-soluble protein abundance (concentration: 2mM) is 1.03 ± 0.085; the NP40-soluble protein abundance (concentration: 4mM) amounted to 1.02 ± 0.013; the NP40-soluble protein abundance (concentration: 6mM) was found to be 1.046 ± 0.0048; the NP40-soluble protein abundance (concentration: 8mM) amounted to 0.971 ± 0.032; the NP40-soluble protein abundance (concentration: 10mM) worked out at 0.962 ± 0.045.
Regarding A0A0B4J1W3|Q9BXJ9 (UniProt Q9BXJ9), the NP40-soluble protein abundance by setting is: (concentration: 1mM) 1.04 ± 0.049; (concentration: 2mM) 1.02 ± 0.047; (concentration: 4mM) 1.01 ± 0.035; (concentration: 6mM) 1 ± 0.07; (concentration: 8mM) 1.03 ± 0.03; (concentration: 10mM) 1.01 ± 0.039.
For “A0A087WY85|P61077 and related entries (UniProt P61077)”, the NP40-soluble protein abundance amounted to 0.977 ± 0.028 (concentration: 1mM); 0.942 ± 0.035 (concentration: 2mM); 0.905 ± 0.026 (concentration: 4mM); 0.925 ± 0.12 (concentration: 6mM); 0.952 ± 0.025 (concentration: 8mM); 0.914 ± 0.054 (concentration: 10mM).
Take “A0A0C4DGH2|P62070 and related entries (UniProt P62070)”: the NP40-soluble protein abundance was determined as 0.953 ± 0.029 (concentration: 1mM); 0.983 ± 0.02 (concentration: 2mM); 0.937 ± 0.042 (concentration: 4mM); 0.922 ± 0.052 (concentration: 6mM); 0.921 ± 0.025 (concentration: 8mM); 0.947 ± 0.052 (concentration: 10mM).
